{"sequences": {"note": "Sequences of proteins named here, by UniProt entry; tags and fusion partners are left off.", "UniProt P26599": "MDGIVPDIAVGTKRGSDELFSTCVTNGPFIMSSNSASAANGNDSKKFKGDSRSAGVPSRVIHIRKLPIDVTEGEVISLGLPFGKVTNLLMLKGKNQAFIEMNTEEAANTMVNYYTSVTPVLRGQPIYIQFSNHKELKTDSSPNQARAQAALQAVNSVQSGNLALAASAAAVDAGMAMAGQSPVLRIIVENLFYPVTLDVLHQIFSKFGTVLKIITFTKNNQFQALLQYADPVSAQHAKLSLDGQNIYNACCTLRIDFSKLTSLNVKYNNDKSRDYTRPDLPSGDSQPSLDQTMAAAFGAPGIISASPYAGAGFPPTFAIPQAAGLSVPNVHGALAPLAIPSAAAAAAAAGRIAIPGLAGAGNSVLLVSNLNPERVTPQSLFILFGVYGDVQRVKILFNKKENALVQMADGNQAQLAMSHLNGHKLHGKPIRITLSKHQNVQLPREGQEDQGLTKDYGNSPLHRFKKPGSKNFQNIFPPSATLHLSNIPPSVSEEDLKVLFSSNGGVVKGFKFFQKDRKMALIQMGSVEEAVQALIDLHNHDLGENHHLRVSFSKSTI", "UniProt Q9UKA9": "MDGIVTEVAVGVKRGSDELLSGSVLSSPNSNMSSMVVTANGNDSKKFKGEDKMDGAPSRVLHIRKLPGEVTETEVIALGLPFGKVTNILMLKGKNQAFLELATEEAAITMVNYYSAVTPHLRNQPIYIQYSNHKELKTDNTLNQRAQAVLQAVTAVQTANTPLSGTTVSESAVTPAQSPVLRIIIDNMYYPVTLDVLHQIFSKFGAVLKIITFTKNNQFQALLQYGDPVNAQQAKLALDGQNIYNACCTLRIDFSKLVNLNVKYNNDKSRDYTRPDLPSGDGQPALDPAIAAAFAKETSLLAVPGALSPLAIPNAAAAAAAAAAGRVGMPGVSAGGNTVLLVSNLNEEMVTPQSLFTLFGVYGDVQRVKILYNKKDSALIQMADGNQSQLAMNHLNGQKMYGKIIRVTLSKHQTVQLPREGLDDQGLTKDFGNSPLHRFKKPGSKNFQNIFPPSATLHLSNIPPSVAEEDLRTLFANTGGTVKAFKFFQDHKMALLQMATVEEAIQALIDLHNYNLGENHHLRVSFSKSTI"}, "source": "paper PMC12136456", "binders": {"B1": {"name": "WAC (protein, UniProt Q9BTA9 1-647)", "chain": "MVMYARKQQRLSDGCHDRRGDSQPYQALKYSSKSHPSSGDHRHEKMRDAGDPSPPNKMLRRSDSPENKYSDSTGHSKAKNVHTHRVRERDGGTSYSPQENSHNHSALHSSNSHSSNPSNNPSKTSDAPYDSADDWSEHISSSGKKYYYNCRTEVSQWEKPKEWLEREQRQKEANKMAVNSFPKDRDYRREVMQATATSGFASGMEDKHSSDASSLLPQNILSQTSRHNDRDYRLPRAETHSSSTPVQHPIKPVVHPTATPSTVPSSPFTLQSDHQPKKSFDANGASTLSKLPTPTSSVPAQKTERKESTSGDKPVSHSCTTPSTSSASGLNPTSAPPTSASAVPVSPVPQSPIPPLLQDPNLLRQLLPALQATLQLNNSNVDISKINEVLTAAVTQASLQSIIHKFLTAGPSAFNITSLISQAAQLSTQAQPSNQSPMSLTSDASSPRSYVSPRISTPQTNTVPIKPLISTPPVSSQPKVSTPVVKQGPVSQSATQQPVTADKQQGHEPVSPRSLQRSSSQRSPSPGPNHTSNSSNASNATVVPQNSSARSTCSLTPALAAHFSENLIKHVQGWPADHAEKQASRLREEAHNMGTIHMSEICTELKNLRSLVRVCEIQATLREQRILFLRQQIKELEKLKNQNSFMV"}, "B2": {"name": "TBL1X (protein, UniProt O60907 1-577)", "chain": "MTELAGASSSCCHRPAGRGAMQSVLHHFQRLRGREGGSHFINTSSPRGEAKMSITSDEVNFLVYRYLQESGFSHSAFTFGIESHISQSNINGTLVPPAALISILQKGLQYVEAEISINEDGTVFDGRPIESLSLIDAVMPDVVQTRQQAFREKLAQQQASAAAAAAAATAAATAATTTSAGVSHQNPSKNREATVNGEENRAHSVNNHAKPMEIDGEVEIPSSKATVLRGHESEVFICAWNPVSDLLASGSGDSTARIWNLNENSNGGSTQLVLRHCIREGGHDVPSNKDVTSLDWNTNGTLLATGSYDGFARIWTEDGNLASTLGQHKGPIFALKWNRKGNYILSAGVDKTTIIWDAHTGEAKQQFPFHSAPALDVDWQNNTTFASCSTDMCIHVCRLGCDRPVKTFQGHTNEVNAIKWDPSGMLLASCSDDMTLKIWSMKQEVCIHDLQAHNKEIYTIKWSPTGPATSNPNSNIMLASASFDSTVRLWDIERGVCTHTLTKHQEPVYSVAFSPDGKYLASGSFDKCVHIWNTQSGNLVHSYRGTGGIFEVCWNARGDKVGASASDGSVCVLDLRK"}, "B3": {"name": "TBL1Y (protein, UniProt Q9BQ87 1-522)", "chain": "MSITSDEVNFLVYRYLQESGFSHSAFTFGIESHISQSNINGTLVPPSALISILQKGLQYVEAEISINKDGTVFDSRPIESLSLIVAVIPDVVQMRQQAFGEKLTQQQASAAATEASAMAKAATMTPAAISQQNPPKNREATVNGEENGAHEINNHSKPMEIDGDVEIPPNKATVLRGHESEVFICAWNPVSDLLASGSGDSTARIWNLNENSNGGSTQLVLRHCIREGGHDVPSNKDVTSLDWNSDGTLLAMGSYDGFARIWTENGNLASTLGQHKGPIFALKWNKKGNYVLSAGVDKTTIIWDAHTGEAKQQFPFHSAPALDVDWQNNMTFASCSTDMCIHVCRLGCDHPVKTFQGHTNEVNAIKWDPSGMLLASCSDDMTLKIWSMKQDACVHDLQAHSKEIYTIKWSPTGPATSNPNSSIMLASASFDSTVRLWDVEQGVCTHTLMKHQEPVYSVAFSPDGKYLASGSFDKYVHIWNTQSGSLVHSYQGTGGIFEVCWNARGDKVGASASDGSVCVLDL"}, "B4": {"name": "LARP7 (protein, UniProt Q4G0J3 1-582)", "chain": "METESGNQEKVMEEESTEKKKEVEKKKRSRVKQVLADIAKQVDFWFGDANLHKDRFLREQIEKSRDGYVDISLLVSFNKMKKLTTDGKLIARALRSSAVVELDLEGTRIRRKKPLGERPKDEDERTVYVELLPKNVNHSWIERVFGKCGNVVYISIPHYKSTGDPKGFAFVEFETKEQAAKAIEFLNNPPEEAPRKPGIFPKTVKNKPIPALRVVEEKKKKKKKKGRMKKEDNIQAKEENMDTSNTSISKMKRSRPTSEGSDIESTEPQKQCSKKKKKRDRVEASSLPEVRTGKRKRSSSEDAESLAPRSKVKKIIQKDIIKEASEASKENRDIEISTEEEKDTGDLKDSSLLKTKRKHKKKHKERHKMGEEVIPLRVLSKSEWMDLKKEYLALQKASMASLKKTISQIKSESEMETDSGVPQNTGMKNEKTANREECRTQEKVNATGPQFVSGVIVKIISTEPLPGRKQVRDTLAAISEVLYVDLLEGDTECHARFKTPEDAQAVINAYTEINKKHCWKLEILSGDHEQRYWQKILVDRQAKLNQPREKKRGTEKLITKAEKIRLAKTQQASKHIRFSEYD"}, "B5": {"name": "FAM50A (protein, UniProt Q14320 1-339)", "chain": "MAQYKGAASEAGRAMHLMKKREKQREQMEQMKQRIAEENIMKSNIDKKFSAHYDAVEAELKSSTVGLVTLNDMKAKQEALVKEREKQLAKKEQSKELQMKLEKLREKERKKEAKRKISSLSFTLEEEEEGGEEEEEAAMYEEEMEREEITTKKRKLGKNPDVDTSFLPDRDREEEENRLREELRQEWEAKQEKIKSEEIEITFSYWDGSGHRRTVKMRKGNTMQQFLQKALEILRKDFSELRSAGVEQLMYIKEDLIIPHHHSFYDFIVTKARGKSGPLFNFDVHDDVRLLSDATVEKDESHAGKVVLRSWYEKNKHIFPASRWEPYDPEKKWDKYTIR"}, "B6": {"name": "Tudor- domain containing protein TDRD5 (protein, UniProt Q8NAT2 1-981)", "chain": "MSEQERIQECLRKEIRSLLISTKDGLSPQELEKEYLLMVGNHLPLRILGYRSTMELVLDMPDVVRVCPGAGGTVILKAIPDESTKGIASLVAKQRSSHKLRNSMHKGRPSIYSGPRSHRRVPYRGRVAPILPAVVKSELKDLLALSPVLLSDFEKAFAKRFGRSFQYMQYGFLSMFEVLNAASDVISVEQTRAGSLLMLKKSVTEEKPRGCPAGKIFTQPFRMKQGSYSTGFPVAKPCFSQPTSNMEPPKQIMSMEKTSKLNVVETSRLNHTEKLNQLENTFKSVIAQIGPGGTISSELKHKIKFVVSKFPEGLFISKLLGEYEVIFKEQLSPKKLGFLNVTELVGALSDILHVEFRKGHQDLLVFDADKKPLPPVQSDKKIEAKACVSSPPRNSLSTAAVKETVWNCPSKKQKEPQQKICKKPNLVVKPLQLQVETNKSELNLAMANHDIPPDAVPNKKLCRLPPLDTSSLIGVFVEYIISPSQFYIRIYSRDSSELLEDMMIEMRRCYSNQLVSDRYVMPECFIQPGHLCCVRISEDKWWYRVIIHRVLEKQEVEVFYPDFGNIGIVQKSSLRFLKCCYTKLPAQAIPCSLAWVRPVEEHWTSKAILQFQKLCGLKPLVGVVDEYVDGILNIFLCDTSSNEDVYFHHVLRTEGHAIVCRENISSKGFSELNPLALYTTSSGGPEDIVLTELGYPSQQHYFNEDRKISPQSKESELRILDEIPTGMPCLESVTIGDDIWDENWLPLQAKMGKGGDAASHLFTASLGGKNQYSSCKEMPQKDWCFSTPKDTWDDSWQPSGLVNGTKVEVHKPEVLGAQEKNTGTNRTQKQLDINGSSDSSTLPKLEEFCTSLTQSEQSADGSQSEPNNSQTQPKQIQLSTAAPCSTTAVDDSAEKPSGSVESSPEILKNEDFSSSRAITLYKDKRQESVDQLSLILSYECQISQKLYIPRSTATAALGAAARLATSRSLLHWYPSVKRMEA"}, "B7": {"name": "CPSF7 (protein, UniProt Q8N684 1-471)", "chain": "MSEGVDLIDIYADEEFNQDPEFNNTDQIDLYDDVLTATSQPSDDRSSSTEPPPPVRQEPSPKPNNKTPAILYTYSGLRNRRAAVYVGSFSWWTTDQQLIQVIRSIGVYDVVELKFAENRANGQSKGYAEVVVASENSVHKLLELLPGKVLNGEKVDVRPATRQNLSQFEAQARKRECVRVPRGGIPPRAHSRDSSDSADGRATPSENLVPSSARVDKPPSVLPYFNRPPSALPLMGLPPPPIPPPPPLSSSFGVPPPPPGIHYQHLMPPPPRLPPHLAVPPPGAIPPALHLNPAFFPPPNATVGPPPDTYMKASAPYNHHGSRDSGPPPSTVSEAEFEDIMKRNRAISSSAISKAVSGASAGDYSDAIETLLTAIAVIKQSRVANDERCRVLISSLKDCLHGIEAKSYSVGASGSSSRKRHRSRERSPSRSRESSRRHRDLLHNEDRHDDYFQERNREHERHRDRERDRHH"}, "B8": {"name": "elongation factor EEF1B2 (protein, UniProt P24534 1-225)", "chain": "MGFGDLKSPAGLQVLNDYLADKSYIEGYVPSQADVAVFEAVSSPPPADLCHALRWYNHIKSYEKEKASLPGVKKALGKYGPADVEDTTGSGATDSKDDDDIDLFGSDDEEESEEAKRLREERLAQYESKKAKKPALVAKSSILLDVKPWDDETDMAKLEECVRSIQADGLVWGSSKLVPVGYGIKKLQIQCVVEDDKVGTDMLEEQITAFEDYVQSMDVAAFNKI"}, "B9": {"name": "CSTF2T (protein, UniProt Q9H0L4 1-616)", "chain": "MSSLAVRDPAMDRSLRSVFVGNIPYEATEEQLKDIFSEVGSVVSFRLVYDRETGKPKGYGFCEYQDQETALSAMRNLNGREFSGRALRVDNAASEKNKEELKSLGPAAPIIDSPYGDPIDPEDAPESITRAVASLPPEQMFELMKQMKLCVQNSHQEARNMLLQNPQLAYALLQAQVVMRIMDPEIALKILHRKIHVTPLIPGKSQSVSVSGPGPGPGPGLCPGPNVLLNQQNPPAPQPQHLARRPVKDIPPLMQTPIQGGIPAPGPIPAAVPGAGPGSLTPGGAMQPQLGMPGVGPVPLERGQVQMSDPRAPIPRGPVTPGGLPPRGLLGDAPNDPRGGTLLSVTGEVEPRGYLGPPHQGPPMHHASGHDTRGPSSHEMRGGPLGDPRLLIGEPRGPMIDQRGLPMDGRGGRDSRAMETRAMETEVLETRVMERRGMETCAMETRGMEARGMDARGLEMRGPVPSSRGPMTGGIQGPGPINIGAGGPPQGPRQVPGISGVGNPGAGMQGTGIQGTGMQGAGIQGGGMQGAGIQGVSIQGGGIQGGGIQGASKQGGSQPSSFSPGQSQVTPQDQEKAALIMQVLQLTADQIAMLPPEQRQSILILKEQIQKSTGAS"}}, "assay_in_all_cases": "affinity purification with mass spectrometry; 48 ug His-tagged PTBP in a 200 ul splicing reaction (2.2 mM MgCl2, 0.4 mM ATP, 20 mM creatine phosphate) with WERI retinoblastoma nuclear extract, 30 C 90 min; HisPur Ni-NTA magnetic resin overnight at 4 C; washes with 150 mM NaCl, 30 mM imidazole; eluted with 300 mM imidazole; proteins of the Buffer DG and WERI only controls removed from the lists; the extract includes RNA transcripts, so a protein may be bound directly or through RNA; only the target purified", "key": {"[1]": {"target": "Polypyrimidine Tract Binding Protein 1, His-tagged (UniProt P26599)"}, "[2]": {"target": "Polypyrimidine Tract Binding Protein 2, His-tagged (UniProt Q9UKA9)"}, "[3]": {"target": "Polypyrimidine Tract Binding Protein 1, His-tagged (UniProt P26599)", "remark": "listed apart in the source"}}, "note": "Read-outs that look alike come from different tables or passages of the source. No constants are given. Whether binding was seen depends on the method and setting. Binding seen in cells or lysates may run through a third protein. Here binding means that the protein was enriched with, or labelled near, the bait; the list need not be complete."}
{"binder": "B1", "values": [{"measurement": "binding", "setting": "[1]", "value": "binds"}]}
{"binder": "B2", "values": [{"measurement": "binding", "setting": "[1]", "value": "binds"}]}
{"binder": "B3", "values": [{"measurement": "binding", "setting": "[1]", "value": "binds"}]}
{"binder": "B4", "values": [{"measurement": "binding", "setting": "[1]", "value": "binds"}, {"measurement": "binding", "setting": "[2]", "value": "binds"}]}
{"binder": "B5", "values": [{"measurement": "binding", "setting": "[1]", "value": "binds"}, {"measurement": "binding", "setting": "[2]", "value": "binds"}]}
{"binder": "B6", "values": [{"measurement": "binding", "setting": "[1]", "value": "binds"}, {"measurement": "binding", "setting": "[2]", "value": "binds"}]}
{"binder": "B7", "values": [{"measurement": "binding", "setting": "[1]", "value": "binds"}, {"measurement": "binding", "setting": "[2]", "value": "binds"}]}
{"binder": "B8", "values": [{"measurement": "binding", "setting": "[1]", "value": "binds"}]}
{"binder": "B9", "values": [{"measurement": "binding", "setting": "[3]", "value": "binds"}]}
